Results deposited as PubChem BioAssay AID686937 (Drosophila RNAi Screening Center, 2013)

- Test: 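Genes whose loss weakens secretory pathway function in fly cells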 (primary screen)
- Cell system: Drosophila S2 cells expressing secreted horseradish peroxidase
- Reagent: long dsRNA against Drosophila genes
- Duration: about 5.5 days (5 days dsRNA, then 12 h reporter induction)
- Treatment: reporter expression induced after 5 days of dsRNA, read 12 h later; inducer not stated
- Measurement: 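Chemiluminescent measurement of peroxidase in the medium 12 h after reporter induction, following 5 days of dsRNA, given as a z-score per plate; higher means more secretion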
- Scale: z-score: higher = more reporter secreted into medium
In all, the deposit lists about 23,000 reagents; below is an unselected part of those that have a named target and a result. 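Reduced-secretion tags in replicate 1 do not always agree with the z-scores; no criterion for assigning the tags was given.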 A plus sign joins genes that one reagent is predicted to hit. Not all columns of the deposit are shown. Not stated in the record: the amount of reagent.

{"target":"CG10474 (GeneID 37211)","DRSC id":"DRSC05993","z-score, replicate 1":0.09}
{"target":"chb (GeneID 43901)","DRSC id":"DRSC11469","z-score, replicate 1":-0.87}
{"target":"Vajk1 (GeneID 34809)","DRSC id":"DRSC01882","z-score, replicate 1":0.61}
{"target":"Ac13E (GeneID 32485)","DRSC id":"DRSC19325","z-score, replicate 1":0.61}
{"target":"schuy (GeneID 40184)","DRSC id":"DRSC10284","z-score, replicate 1":0.37}
{"target":"CLS (GeneID 43104)","DRSC id":"DRSC15642","z-score, replicate 1":-0.05}
{"target":"CG43288 (GeneID 12798106)","DRSC id":"DRSC17314","z-score, replicate 1":-0.55}
{"target":"Cpr49Ad (GeneID 36349)","DRSC id":"DRSC07284","z-score, replicate 1":0.38}
{"target":"CG13658 (GeneID 43055)","DRSC id":"DRSC14659","z-score, replicate 1":0.28}
{"target":"Ifrd1 (GeneID 33489)","DRSC id":"DRSC00415","z-score, replicate 1":0.07}
{"target":"Ifrd1 (GeneID 33489)","DRSC id":"DRSC00566","z-score, replicate 1":0.19}
{"target":"CG7766 (GeneID 31839)","DRSC id":"DRSC18424","z-score, replicate 1":0.58}
{"target":"vret (GeneID 42695)","DRSC id":"DRSC15640","z-score, replicate 1":0.35}
{"target":"HP4 (GeneID 38887)","DRSC id":"DRSC10958","z-score, replicate 1":0.38}
{"target":"CG13004 (GeneID 32673)","DRSC id":"DRSC19523","z-score, replicate 1":0.24}
{"target":"moi + Tgs1","DRSC id":"DRSC16371","z-score, replicate 1":-0.3}
{"target":"Reps (GeneID 34542)","DRSC id":"DRSC02940","z-score, replicate 1":0.1}
{"target":"CG31643 (GeneID 318867)","DRSC id":"DRSC00906","z-score, replicate 1":0.72}
{"target":"CG3032 (GeneID 31648)","DRSC id":"DRSC18266","z-score, replicate 1":0.39}
{"target":"l(1)G0289 (GeneID 31964)","DRSC id":"DRSC18215","z-score, replicate 1":0.41}
{"target":"yrt (GeneID 41656)","DRSC id":"DRSC16559","z-score, replicate 1":0.3}
{"target":"cib (GeneID 31359)","DRSC id":"DRSC18660","z-score, replicate 1":0.39}
{"target":"Jheh2 (GeneID 37181)","DRSC id":"DRSC06530","z-score, replicate 1":0.24}
{"target":"CG9068 (GeneID 36817)","DRSC id":"DRSC07329","z-score, replicate 1":0.3}
{"target":"pot (GeneID 32154)","DRSC id":"DRSC19850","z-score, replicate 1":0.15}
{"target":"Mdh2 (GeneID 42185)","DRSC id":"DRSC16361","z-score, replicate 1":0.31}
{"target":"CG13084 (GeneID 35229)","DRSC id":"DRSC02188","z-score, replicate 1":-0.01}
{"target":"BthD (GeneID 32317)","DRSC id":"DRSC19395","z-score, replicate 1":0.04}
{"target":"mip40 (GeneID 37215)","DRSC id":"DRSC06541","z-score, replicate 1":0.49}
{"target":"CG4021 (GeneID 37484)","DRSC id":"DRSC04439","z-score, replicate 1":-0.14}
{"target":"homer (GeneID 33944)","DRSC id":"DRSC03547","z-score, replicate 1":0.39}

Sorted by “z-score, replicate 1” (highest first): 2 of the entries above.
{"target":"Ac13E (GeneID 32485)","DRSC id":"DRSC19325","z-score, replicate 1":0.61}
{"target":"schuy (GeneID 40184)","DRSC id":"DRSC10284","z-score, replicate 1":0.37}

The listing continues:
{"target":"Tspo + rempA","DRSC id":"DRSC00533","z-score, replicate 1":0.39}
{"target":"Rnp4F (GeneID 31448)","DRSC id":"DRSC18706","z-score, replicate 1":0.26}
{"target":"CG12111 (GeneID 31796)","DRSC id":"DRSC17808","z-score, replicate 1":0.27}
{"target":"Aef1 (GeneID 40370)","DRSC id":"DRSC11605","z-score, replicate 1":0.09}
{"target":"fs(1)Yb (GeneID 31262)","DRSC id":"DRSC18777","z-score, replicate 1":0.18}
{"target":"CG11000 (GeneID 40721)","DRSC id":"DRSC12082","z-score, replicate 1":0.38}
{"target":"CG11000 (GeneID 40721)","DRSC id":"DRSC12158","z-score, replicate 1":0.3}
{"target":"Ndae1 (GeneID 34005)","DRSC id":"DRSC00975","z-score, replicate 1":-0.9}
{"target":"Ndae1 (GeneID 34005)","DRSC id":"DRSC02770","z-score, replicate 1":0.04}
{"target":"Cyp6d2 (GeneID 37594)","DRSC id":"DRSC04606","z-score, replicate 1":-3.14}
{"target":"lncRNA:CR30009 (GeneID 3771726)","DRSC id":"DRSC22952","z-score, replicate 1":-0.39}
{"target":"CG14275 (GeneID 34144)","DRSC id":"DRSC02379","z-score, replicate 1":0.32}
{"target":"CG33269 (GeneID 2768983)","DRSC id":"DRSC10585","z-score, replicate 1":-1.84,"phenotype, replicate 1":"reduced secretion"}
{"target":"CG31029 (GeneID 318562)","DRSC id":"DRSC15422","z-score, replicate 1":-0.02}
{"target":"CG10920 (GeneID 31688)","DRSC id":"DRSC17765","z-score, replicate 1":-0.2}
{"target":"CG43260 (retired record) (GeneID 12798173)","DRSC id":"DRSC19313","z-score, replicate 1":0.19}
{"target":"Cpr30B (GeneID 34270)","DRSC id":"DRSC02728","z-score, replicate 1":0.77}
{"target":"chico (GeneID 64880)","DRSC id":"DRSC03531","z-score, replicate 1":0.23}
{"target":"Kif19A (GeneID 41717)","DRSC id":"DRSC16576","z-score, replicate 1":-0.63}
{"target":"CG5402 (GeneID 43306)","DRSC id":"DRSC15792","z-score, replicate 1":0.01}
